Source: the supplement of paper PMC10849652
This is one part of the list.

The chains behind the UniProt entries cited, without tags or fusion partners. Where a name states a change or a piece, a line headed by the entry shows the natural chain unless it says otherwise.
UniProt Q0P651: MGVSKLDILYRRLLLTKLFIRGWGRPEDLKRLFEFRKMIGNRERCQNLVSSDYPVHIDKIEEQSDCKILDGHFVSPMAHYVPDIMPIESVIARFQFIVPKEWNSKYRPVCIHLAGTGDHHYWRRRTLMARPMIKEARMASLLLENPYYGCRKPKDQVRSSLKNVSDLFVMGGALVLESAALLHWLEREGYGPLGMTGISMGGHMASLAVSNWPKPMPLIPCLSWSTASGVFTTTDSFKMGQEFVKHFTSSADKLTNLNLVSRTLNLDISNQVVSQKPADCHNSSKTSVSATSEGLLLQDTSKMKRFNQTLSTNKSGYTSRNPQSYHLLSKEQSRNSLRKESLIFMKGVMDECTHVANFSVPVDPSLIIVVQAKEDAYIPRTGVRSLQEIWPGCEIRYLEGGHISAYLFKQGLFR
UniProt Q4L235: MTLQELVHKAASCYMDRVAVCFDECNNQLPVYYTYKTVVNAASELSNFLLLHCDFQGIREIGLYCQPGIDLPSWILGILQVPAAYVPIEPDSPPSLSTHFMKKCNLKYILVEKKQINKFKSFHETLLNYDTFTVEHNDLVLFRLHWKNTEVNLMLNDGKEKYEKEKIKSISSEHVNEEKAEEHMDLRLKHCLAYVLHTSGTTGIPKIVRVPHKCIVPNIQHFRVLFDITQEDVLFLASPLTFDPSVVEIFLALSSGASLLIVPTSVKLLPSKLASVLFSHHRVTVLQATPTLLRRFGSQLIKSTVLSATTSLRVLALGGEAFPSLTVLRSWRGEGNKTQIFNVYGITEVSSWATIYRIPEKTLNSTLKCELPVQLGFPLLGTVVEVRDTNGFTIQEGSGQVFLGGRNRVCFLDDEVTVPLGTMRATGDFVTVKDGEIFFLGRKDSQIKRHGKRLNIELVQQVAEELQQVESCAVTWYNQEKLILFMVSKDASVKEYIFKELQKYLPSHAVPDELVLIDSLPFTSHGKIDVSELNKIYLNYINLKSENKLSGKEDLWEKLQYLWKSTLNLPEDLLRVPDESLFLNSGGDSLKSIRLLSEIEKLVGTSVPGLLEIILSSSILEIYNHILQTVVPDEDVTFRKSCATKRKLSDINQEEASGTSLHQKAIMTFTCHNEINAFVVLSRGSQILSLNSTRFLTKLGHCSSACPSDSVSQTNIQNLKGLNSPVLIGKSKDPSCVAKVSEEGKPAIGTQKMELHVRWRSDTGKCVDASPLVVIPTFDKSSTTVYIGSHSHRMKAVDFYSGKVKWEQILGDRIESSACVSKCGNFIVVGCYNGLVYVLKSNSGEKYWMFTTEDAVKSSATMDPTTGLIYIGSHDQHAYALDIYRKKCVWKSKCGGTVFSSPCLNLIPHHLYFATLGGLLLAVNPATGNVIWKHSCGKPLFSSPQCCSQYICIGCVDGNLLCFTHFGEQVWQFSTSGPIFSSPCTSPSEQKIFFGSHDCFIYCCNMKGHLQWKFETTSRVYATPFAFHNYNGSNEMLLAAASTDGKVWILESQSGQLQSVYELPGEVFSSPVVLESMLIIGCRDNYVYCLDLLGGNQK
UniProt Q9UKU7: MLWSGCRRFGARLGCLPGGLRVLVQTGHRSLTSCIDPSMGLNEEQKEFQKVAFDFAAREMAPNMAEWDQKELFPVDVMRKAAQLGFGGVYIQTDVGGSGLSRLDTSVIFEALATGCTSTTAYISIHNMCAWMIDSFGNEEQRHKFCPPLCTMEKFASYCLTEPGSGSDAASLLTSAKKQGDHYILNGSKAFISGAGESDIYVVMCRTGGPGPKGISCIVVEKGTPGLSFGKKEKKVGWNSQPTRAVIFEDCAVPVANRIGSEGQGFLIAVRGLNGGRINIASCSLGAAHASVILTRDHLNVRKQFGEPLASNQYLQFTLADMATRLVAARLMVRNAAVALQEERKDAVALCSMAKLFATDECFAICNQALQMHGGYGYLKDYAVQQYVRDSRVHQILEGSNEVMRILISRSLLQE
UniProt Q99758: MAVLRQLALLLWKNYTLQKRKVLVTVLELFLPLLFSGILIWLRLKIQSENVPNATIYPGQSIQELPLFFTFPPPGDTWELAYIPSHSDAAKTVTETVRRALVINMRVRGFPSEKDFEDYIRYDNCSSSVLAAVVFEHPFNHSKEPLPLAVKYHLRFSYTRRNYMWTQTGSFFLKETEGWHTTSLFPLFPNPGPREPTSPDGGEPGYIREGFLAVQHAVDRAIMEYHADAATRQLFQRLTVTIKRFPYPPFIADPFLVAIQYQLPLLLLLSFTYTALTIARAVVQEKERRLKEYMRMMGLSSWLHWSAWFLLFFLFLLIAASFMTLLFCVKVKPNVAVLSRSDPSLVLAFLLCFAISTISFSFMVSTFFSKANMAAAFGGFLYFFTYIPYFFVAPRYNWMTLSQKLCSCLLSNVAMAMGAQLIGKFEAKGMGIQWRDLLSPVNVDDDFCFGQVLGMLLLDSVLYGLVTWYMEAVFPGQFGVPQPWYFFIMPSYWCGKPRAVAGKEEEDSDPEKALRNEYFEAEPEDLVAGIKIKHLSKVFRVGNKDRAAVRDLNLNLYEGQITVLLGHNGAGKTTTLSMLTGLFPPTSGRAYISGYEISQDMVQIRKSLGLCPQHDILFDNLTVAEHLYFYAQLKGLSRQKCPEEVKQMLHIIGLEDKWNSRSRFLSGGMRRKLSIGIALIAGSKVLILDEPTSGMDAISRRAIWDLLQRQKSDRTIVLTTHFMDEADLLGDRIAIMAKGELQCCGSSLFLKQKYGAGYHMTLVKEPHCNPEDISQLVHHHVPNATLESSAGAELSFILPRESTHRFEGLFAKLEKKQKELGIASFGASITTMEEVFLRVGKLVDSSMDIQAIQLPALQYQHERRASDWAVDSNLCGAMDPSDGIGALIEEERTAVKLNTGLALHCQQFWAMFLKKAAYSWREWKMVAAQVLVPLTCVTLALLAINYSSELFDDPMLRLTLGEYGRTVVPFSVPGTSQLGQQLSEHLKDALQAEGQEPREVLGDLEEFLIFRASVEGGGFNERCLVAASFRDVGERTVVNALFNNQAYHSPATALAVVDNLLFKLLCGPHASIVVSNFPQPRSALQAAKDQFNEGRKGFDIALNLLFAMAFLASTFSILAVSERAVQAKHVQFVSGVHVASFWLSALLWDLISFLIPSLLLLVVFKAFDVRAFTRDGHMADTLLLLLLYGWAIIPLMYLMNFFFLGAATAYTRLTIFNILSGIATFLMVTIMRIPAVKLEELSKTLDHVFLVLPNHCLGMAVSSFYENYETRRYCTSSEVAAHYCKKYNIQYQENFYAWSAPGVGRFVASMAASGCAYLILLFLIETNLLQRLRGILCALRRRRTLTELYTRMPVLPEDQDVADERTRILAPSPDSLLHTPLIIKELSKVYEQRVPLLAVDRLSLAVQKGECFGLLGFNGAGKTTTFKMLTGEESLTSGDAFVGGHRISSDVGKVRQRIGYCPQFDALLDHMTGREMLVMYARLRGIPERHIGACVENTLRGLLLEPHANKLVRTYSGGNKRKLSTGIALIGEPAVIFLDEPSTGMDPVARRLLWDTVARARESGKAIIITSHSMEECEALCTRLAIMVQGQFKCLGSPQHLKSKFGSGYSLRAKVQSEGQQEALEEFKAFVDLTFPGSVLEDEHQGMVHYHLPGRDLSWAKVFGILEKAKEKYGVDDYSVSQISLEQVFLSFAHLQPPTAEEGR
UniProt O15440: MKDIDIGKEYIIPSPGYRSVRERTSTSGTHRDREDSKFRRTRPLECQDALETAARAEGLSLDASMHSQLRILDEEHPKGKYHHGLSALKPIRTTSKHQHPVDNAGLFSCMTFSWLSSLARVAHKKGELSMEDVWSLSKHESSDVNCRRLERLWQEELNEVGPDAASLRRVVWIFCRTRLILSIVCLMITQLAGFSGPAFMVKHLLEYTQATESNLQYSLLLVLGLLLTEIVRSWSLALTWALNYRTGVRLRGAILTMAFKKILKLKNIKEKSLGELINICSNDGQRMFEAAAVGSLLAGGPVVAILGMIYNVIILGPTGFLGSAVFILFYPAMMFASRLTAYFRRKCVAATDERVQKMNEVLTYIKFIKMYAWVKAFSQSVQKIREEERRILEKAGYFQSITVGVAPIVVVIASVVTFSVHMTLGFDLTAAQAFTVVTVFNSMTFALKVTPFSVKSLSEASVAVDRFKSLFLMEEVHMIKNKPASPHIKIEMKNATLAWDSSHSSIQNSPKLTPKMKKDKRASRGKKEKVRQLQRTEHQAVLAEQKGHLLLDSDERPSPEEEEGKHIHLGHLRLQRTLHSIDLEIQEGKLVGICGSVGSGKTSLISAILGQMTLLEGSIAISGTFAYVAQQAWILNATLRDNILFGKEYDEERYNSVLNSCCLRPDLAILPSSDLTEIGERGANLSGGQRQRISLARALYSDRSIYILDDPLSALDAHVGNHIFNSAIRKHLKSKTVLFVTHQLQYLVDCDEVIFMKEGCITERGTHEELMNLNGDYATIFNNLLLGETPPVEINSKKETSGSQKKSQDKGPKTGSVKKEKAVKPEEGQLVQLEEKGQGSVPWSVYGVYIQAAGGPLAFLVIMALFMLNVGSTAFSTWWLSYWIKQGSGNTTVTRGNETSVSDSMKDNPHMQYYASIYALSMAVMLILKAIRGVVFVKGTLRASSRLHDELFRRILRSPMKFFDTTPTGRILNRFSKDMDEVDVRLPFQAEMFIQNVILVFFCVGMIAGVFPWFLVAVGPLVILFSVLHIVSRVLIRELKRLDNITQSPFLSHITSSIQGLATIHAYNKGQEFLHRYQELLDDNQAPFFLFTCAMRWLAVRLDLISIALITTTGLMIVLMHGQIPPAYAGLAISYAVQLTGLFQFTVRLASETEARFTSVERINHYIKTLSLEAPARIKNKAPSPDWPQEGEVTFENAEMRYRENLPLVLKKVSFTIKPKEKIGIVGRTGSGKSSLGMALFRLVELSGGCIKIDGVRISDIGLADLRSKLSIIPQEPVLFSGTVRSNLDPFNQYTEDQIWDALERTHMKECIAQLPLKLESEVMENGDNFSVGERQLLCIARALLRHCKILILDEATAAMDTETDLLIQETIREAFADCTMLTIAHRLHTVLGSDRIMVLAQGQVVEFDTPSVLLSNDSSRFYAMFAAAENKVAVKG
UniProt O15438: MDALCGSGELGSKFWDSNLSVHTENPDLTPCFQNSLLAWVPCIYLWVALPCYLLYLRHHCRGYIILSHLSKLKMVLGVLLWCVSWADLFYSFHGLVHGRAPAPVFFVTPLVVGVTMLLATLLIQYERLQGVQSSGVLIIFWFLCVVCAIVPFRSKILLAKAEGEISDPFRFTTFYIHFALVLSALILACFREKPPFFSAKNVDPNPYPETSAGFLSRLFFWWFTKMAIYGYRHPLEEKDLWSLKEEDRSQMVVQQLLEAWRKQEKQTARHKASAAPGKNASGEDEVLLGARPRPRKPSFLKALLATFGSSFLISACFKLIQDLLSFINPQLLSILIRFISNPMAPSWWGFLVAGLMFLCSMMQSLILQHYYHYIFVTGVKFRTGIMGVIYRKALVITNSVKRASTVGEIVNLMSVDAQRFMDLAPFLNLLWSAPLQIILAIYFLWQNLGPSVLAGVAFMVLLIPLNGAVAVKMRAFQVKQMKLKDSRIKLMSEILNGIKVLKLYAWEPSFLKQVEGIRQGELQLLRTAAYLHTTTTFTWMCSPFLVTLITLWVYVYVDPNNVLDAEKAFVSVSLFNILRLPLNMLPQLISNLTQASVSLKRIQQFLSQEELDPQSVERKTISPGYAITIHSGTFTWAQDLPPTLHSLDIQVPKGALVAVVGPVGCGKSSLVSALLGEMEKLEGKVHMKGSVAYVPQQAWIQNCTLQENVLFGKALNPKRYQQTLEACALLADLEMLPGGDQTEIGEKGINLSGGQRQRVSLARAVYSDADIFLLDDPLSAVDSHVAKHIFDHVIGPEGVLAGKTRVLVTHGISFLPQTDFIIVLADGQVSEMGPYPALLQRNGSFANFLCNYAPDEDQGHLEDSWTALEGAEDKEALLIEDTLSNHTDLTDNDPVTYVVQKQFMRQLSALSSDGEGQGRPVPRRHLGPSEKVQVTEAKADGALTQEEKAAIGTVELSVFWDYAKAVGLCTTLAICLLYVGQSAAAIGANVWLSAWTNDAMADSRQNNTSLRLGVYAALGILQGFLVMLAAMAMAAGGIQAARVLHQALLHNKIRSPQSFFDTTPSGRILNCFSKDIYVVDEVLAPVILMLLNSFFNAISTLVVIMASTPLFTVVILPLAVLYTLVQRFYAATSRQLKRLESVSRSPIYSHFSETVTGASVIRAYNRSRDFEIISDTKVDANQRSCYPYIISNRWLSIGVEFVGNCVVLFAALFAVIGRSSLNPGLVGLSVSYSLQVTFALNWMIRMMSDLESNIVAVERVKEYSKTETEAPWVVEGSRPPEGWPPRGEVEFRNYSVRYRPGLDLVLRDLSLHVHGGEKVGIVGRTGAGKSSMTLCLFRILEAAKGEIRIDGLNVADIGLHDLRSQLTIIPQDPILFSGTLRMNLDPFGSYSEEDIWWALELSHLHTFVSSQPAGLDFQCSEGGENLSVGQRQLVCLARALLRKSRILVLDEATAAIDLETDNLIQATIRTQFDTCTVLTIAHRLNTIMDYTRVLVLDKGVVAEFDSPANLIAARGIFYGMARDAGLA

Assays:
Assay in all cases: log2 fold change, soluble protein after heating vs DMSO (PISA); higher = thermal stabilisation; K562 lysate, 10 uM; active = over 0.2 and 3.5 SD of the protein, either way, in both replicates (recomputed)
[1] = compound: C1=CC2=NC=CN=C2C=C1/C=C/3\C(=O)NC(=O)S3
How it was run: (§1)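 To prepare the extract, K562 pellets were dounce-homogenised in PBS pH 7.4 with 1 mM MgCl2, giving crude material at 1 mg/mL protein. This was treated with 10 μM compound for 30 min, then heated in aliquots for 3 min over 48°C-58°C before pooling and addition of NP-40 to 0.5% at 4°C. Centrifugation at 21,000xg for 90 min left soluble protein in the supernatant, which TMTpro 16plex LC-MS/MS quantified with equalised channel sums. Results are log-two fold changes in thermal stability compared with solvent controls, from duplicates.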

[2] = compound: C1=CC=C(C=C1)C2=NC(=C(N2)C3=CC=NC=C3)C4=CC(=C(C=C4)Cl)O
How it was run: as §1

IRAK-1-4 Inhibitor I = compound: C1COCCN1CCN2C3=CC=CC=C3N=C2NC(=O)C4=CC(=CC=C4)[N+](=O)[O-] [IRAK-1-4 Inhibitor I]
How it was run: as §1

ibrutinib = compound: C=CC(=O)N1CCC[C@@H](n2nc(-c3ccc(Oc4ccccc4)cc3)c3c(N)ncnc32)C1 [ibrutinib]
How it was run: as §1

ralimetinib = compound: CC(C)(C)Cn1c(N)nc2ccc(-c3[nH]c(C(C)(C)C)nc3-c3ccc(F)cc3)nc21 [ralimetinib]
How it was run: as §1

[3] = compound: CC(C)(O)CC(=O)NCCn1ccc2ncnc(Nc3ccc(Oc4cccc(C(F)(F)F)c4)c(Cl)c3)c21
How it was run: as §1

[4] = compound: CC1=C(C=C(C=C1)NC(=O)C2=CC(=CC=C2)N(C)C)NC(=O)C3=CC=C(C=C3)O
How it was run: as §1

erlotinib = compound: C#Cc1cccc(Nc2ncnc3cc(OCCOC)c(OCCOC)cc23)c1 [erlotinib]
How it was run: as §1

[5] = compound: C1=CC(=CC=C1C2=NC3=C(N2)C=C(C=C3)C(=O)N)OC4=CC=C(C=C4)Cl
How it was run: as §1

[6] = compound: CC(=O)c1cnc2ccc(-c3cc(Cl)c(O)c(Cl)c3)nc2c1N[C@H]1CC[C@H](CN(C)C)CC1
How it was run: as §1

[7] = compound: CC(C)C1=C2N=C(C=C(N2N=C1)NCC3=CC=CC=C3)NCCCCCCN
How it was run: as §1

[8] = compound: CC1=C(C(CC(=O)N1)C2=CC=C(C=C2)C(F)(F)F)C(=O)NC3=C(C=C4C(=C3)C=NN4)F
How it was run: as §1

[9] = compound: CC1=C(C2=C(C=C1)C(=O)C3=CC=CC=C3N2CCCN)C
How it was run: as §1

[10] = compound: CC1=C(C=C(C=C1)NC(=O)C2=CC(=CC=C2)C(C)(C)C#N)NC3=CC4=C(C=C3)N=CN(C4=O)C
How it was run: as §1

[11] = compound: CC1=CC=C(C=C1)SC2=C3C=C(SC3=CN=C2)C(=O)N
How it was run: as §1

[12] = compound: C1CCN(C1)C(=O)NC2=CC=CC(=C2)NC3=NC=C(C(=N3)NCCC4=CN=CN4)Br
How it was run: as §1

[13] = compound: C1CN(CCC1(CC2=CC=C(C=C2)Cl)N)C3=NC=NC4=C3C=CN4
How it was run: as §1

[14] = compound: C/C(=N\NC(=O)C1=CC(=CC=C1)S(=O)(=O)N2CCOCC2)/C3=C(C=CC(=C3)Cl)O
How it was run: as §1

[15] = compound: C1=CC2=C(C=CC(=C2)/C=C\3/C(=O)NC(=NCC4=CC=CS4)S3)N=C1
How it was run: as §1

[16] = compound: C1=CC=C2C(=C1)C3=NNC4=CC=CC(=C43)C2=O
How it was run: as §1

Measured: log2 fold change

ABTB2 (UniProt Q8N961)
inactive: [1] 0.097 | [2] 0.228 | IRAK-1-4 Inhibitor I 0.224 | ibrutinib -0.056 | ralimetinib -0.016 | [3] -0.458 | [4] 0.018

ABRACL (UniProt Q9P1F3)
inactive: erlotinib -0.013 | [5] 0.056 | [1] 0.103 | ibrutinib 0.109 | [6] -0.179 | [7] 0.001 | [8] -0.112 | [9] 0.142 | [10] 0.051 | [11] 0.015

ABHD18 (UniProt Q0P651)
inactive: erlotinib -0.118 | [5] -0.217 | [12] -0.019 | [13] -0.047 | [7] -0.19 | [8] 0.115

AASDH (UniProt Q4L235)
inactive: erlotinib 0.018 | [14] -0.047 | [5] -0.094 | [15] -0.008 | [1] 0.011 | [2] 0.019 | [16] 0.056 | [12] 0.12 | [13] 0.005 | IRAK-1-4 Inhibitor I 0.06 | ibrutinib -0.034 | [6] -0.109 | ralimetinib 0.039 | [3] -0.041 | [7] 0.351 | [8] -0.044 | [9] -0.016 | [4] -0.052 | [11] -0.027

ABCD4 (UniProt O14678)
inactive: erlotinib -0.476 | [5] 0.136 | [6] -0.083 | [7] 0.091 | [11] 0.063

ACAD10 isoform 5 (UniProt Q6JQN1)
inactive: erlotinib 0.089 | [5] -0.032 | [2] 0.067 | [12] -0.048 | [13] 0.032 | IRAK-1-4 Inhibitor I -0.018 | [6] -0.117 | ralimetinib -0.026 | [3] 0.013 | [7] -0.038 | [8] 0.496 | [9] -0.033 | [10] 0.094 | [4] 0.025 | [11] -0.181

ABCA8 isoform 3 (UniProt O94911)
inactive: erlotinib 0.008 | [5] 0.085 | [6] -0.008 | [7] 0.044 | [10] -0.016 | [11] -0.344

A0A494C100, A0A494C100
inactive: [14] 0.099 | [15] -0.178 | [1] -0.053 | [16] -0.015 | ibrutinib -0.079 | [9] -0.298

ABLIM1 (UniProt O14639)
inactive: erlotinib 0.132 | [14] -0.003 | [5] 0.069 | [15] -0.076 | [1] 0.018 | [2] -0.016 | [16] -0.004 | [12] 0.017 | [13] 0.041 | IRAK-1-4 Inhibitor I 0.013 | ibrutinib 0.032 | [6] -0.042 | ralimetinib -0.027 | [3] -0.075 | [7] -0.042 | [8] 0.037 | [9] -0.063 | [10] 0.09 | [4] 0.025 | [11] -0.033

ACAD8 (UniProt Q9UKU7)
inactive: [14] 0.066 | [15] -0.077 | [1] 0.073 | [16] -0.003 | ibrutinib 0.11 | [6] 0.065 | [9] -0.061 | [10] 0.038 | [11] -0.109

AARSD1 (UniProt Q9BTE6)
inactive: [1] 0.037 | [12] -0.16 | [13] 0 | ibrutinib -0.017 | [6] 0.02 | [8] -0.092 | [9] -0.18 | [11] -0.102

ACAP1 (UniProt Q15027)
inactive: [10] 0.053

ACBD7 (UniProt Q8N6N7)
inactive: erlotinib -0.006 | [5] -0.049 | [6] 0.041 | [7] 0.016 | [9] -0.058 | [11] -0.076

ABHD3 (UniProt Q8WU67)
inactive: [2] 0.077 | IRAK-1-4 Inhibitor I -0.068 | ralimetinib -0.049 | [3] -0.164 | [4] 0.107

A2ML1 (UniProt A8K2U0)
inactive: erlotinib -0.067 | [5] -0.112 | [1] 0.379 | [2] 0.106 | IRAK-1-4 Inhibitor I -0.852 | ibrutinib -0.124 | [6] -0.018 | ralimetinib -0.256 | [3] 0.514 | [7] -0.034 | [10] 0.051 | [4] 0.099 | [11] 0.112

ABHD15 (UniProt Q6UXT9)
inactive: erlotinib -0.039 | [14] -0.016 | [5] -0.05 | [15] -0.049 | [2] 0.003 | [16] 0.002 | [12] -0.007 | [13] 0.012 | IRAK-1-4 Inhibitor I -0.033 | [6] -0.005 | ralimetinib -0.005 | [3] -0.163 | [7] -0.006 | [4] 0.002 | [11] 0.004

ACE (UniProt P12821)
inactive: erlotinib -0.009 | [14] 0.027 | [5] -0.054 | [15] -0.092 | [16] -0.012 | [6] -0.014 | [7] 0.051 | [11] 0.016

ACD (UniProt Q96AP0)
inactive: [2] 0.124 | IRAK-1-4 Inhibitor I 0.304 | ralimetinib -0.338 | [3] -0.009 | [10] -0.036 | [4] 0.053

ABCA7 (UniProt Q8IZY2)
inactive: [9] -0.011 | [10] 0.051

A0A494C071, A0A494C071
inactive: [1] -0.066 | ibrutinib -0.023 | [9] -0.198

Random excerpt: 2 records from the list
ABCA8 isoform 3 (UniProt O94911)
inactive: erlotinib 0.008 | [5] 0.085 | [6] -0.008 | [7] 0.044 | [10] -0.016 | [11] -0.344

ACAD10 isoform 5 (UniProt Q6JQN1)
inactive: erlotinib 0.089 | [5] -0.032 | [2] 0.067 | [12] -0.048 | [13] 0.032 | IRAK-1-4 Inhibitor I -0.018 | [6] -0.117 | ralimetinib -0.026 | [3] 0.013 | [7] -0.038 | [8] 0.496 | [9] -0.033 | [10] 0.094 | [4] 0.025 | [11] -0.181

Next part:

ABHD4 (UniProt Q8TB40)
inactive: [14] 0.038 | [15] -0.025 | [16] 0.146 | [8] -0.015

ACLY isoform 2 (UniProt P53396)
inactive: [14] -0.122 | [15] 0.002 | [1] -0.018 | [2] 0.012 | [16] -0.034 | [12] -0.027 | [13] -0.029 | IRAK-1-4 Inhibitor I -0.053 | ibrutinib -0.015 | [6] 0.028 | ralimetinib -0.022 | [3] 0.07 | [8] 0.008 | [10] 0.018 | [4] -0.008 | [11] -0.01

2 successive entries from above:
ACAP1 (UniProt Q15027)
inactive: [10] 0.053

ACBD7 (UniProt Q8N6N7)
inactive: erlotinib -0.006 | [5] -0.049 | [6] 0.041 | [7] 0.016 | [9] -0.058 | [11] -0.076

Next part.

ABCA3 (UniProt Q99758)
inactive: erlotinib -0.022 | [14] -0.028 | [5] -0.033 | [15] 0.036 | [1] -0.096 | [2] 0.037 | [16] 0.211 | [12] -0.118 | [13] 0 | IRAK-1-4 Inhibitor I 0.114 | ibrutinib -0.036 | [6] -0.002 | ralimetinib -0.041 | [3] -0.13 | [7] -0.023 | [9] -0.112 | [10] 0.062 | [4] -0.028 | [11] 0.128

ABCE1 (UniProt H0Y990)
inactive: erlotinib -0.071 | [14] -0.236 | [5] -0.1 | [15] -0.007 | [1] -0.027 | [2] -0.061 | [16] -0.027 | [12] 0.085 | [13] -0.129 | IRAK-1-4 Inhibitor I 0.234 | ibrutinib 0.078 | ralimetinib -0.159 | [3] -0.206 | [7] -0.092 | [10] 0.107 | [4] 0.01

ABCC10 (UniProt Q5T3U5)
inactive: erlotinib -0.002 | [5] 0.084 | [2] -0.129 | IRAK-1-4 Inhibitor I -0.157 | ralimetinib 0.066 | [3] 0.006 | [7] -0.05 | [8] -0.074 | [9] -0.166 | [4] 0.052

ABHD13 (UniProt Q7L211)
inactive: [14] 0.015 | [15] 0.021 | [1] 0.011 | [16] -0.071 | [12] 0.176 | [13] 0.04 | ibrutinib 0.041 | [6] -0.017 | [8] -0.028 | [9] 0.196 | [10] 0.03 | [11] 0.003

ABCC5 (UniProt O15440)
inactive: erlotinib 0.059 | [14] -0.581 | [5] 0.057 | [15] -0.028 | [1] -0.127 | [2] -0.112 | [16] -0.248 | [12] -0.038 | [13] 0.072 | IRAK-1-4 Inhibitor I -0.067 | ibrutinib -0.109 | [6] 0.012 | ralimetinib -0.216 | [3] -0.145 | [7] -0.015 | [9] -0.094 | [10] 0.019 | [4] 0.187 | [11] -0.019

ACAT1, A0A5F9ZHJ0
inactive: [2] -0.128 | IRAK-1-4 Inhibitor I 0.075 | ralimetinib 0.034 | [3] -0.129 | [8] -0.106 | [4] 0.013

AARS1 (UniProt H3BPK7)
inactive: [14] 0.147 | [15] -0.051 | [16] -0.049

ABCC3 isoform 4 (UniProt O15438)
inactive: [2] -0.016 | IRAK-1-4 Inhibitor I -0.077 | [6] 0.083 | ralimetinib 0.066 | [3] 0.042 | [9] 0.063 | [10] 0.01 | [4] 0.006 | [11] -0.068

ABI1 isoform 6 (UniProt Q8IZP0)
inactive: [12] -0.167 | [13] 0.213 | [6] -0.034 | [11] -0.028

ACAP3 (UniProt Q96P50)
inactive: [1] 0.082 | [2] -0.053 | [12] -0.045 | [13] 0.095 | IRAK-1-4 Inhibitor I -0.318 | ibrutinib -0.025 | [6] -0.005 | ralimetinib 0.101 | [3] -0.092 | [8] 0.064 | [9] -0.16 | [4] 0.002 | [11] -0.128

ACBD5 (UniProt Q5T8D3)
inactive: erlotinib -0.035 | [5] -0.034 | [2] -0.085 | IRAK-1-4 Inhibitor I 0.124 | [6] -0.144 | ralimetinib -0.052 | [3] 0.091 | [7] 0.048 | [9] 0.105 | [4] 0.061 | [11] 0.33
